Measurements reported in PubChem BioAssay AID720505 (Drosophila RNAi Screening Center, 2013).
Assay: 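Knock-downs that reduce calcium influx once internal stores are emptied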 (primary screen). System: Drosophila S2R+ cells. Reagents: long dsRNA against Drosophila genes. Treatment: thapsigargin (2 µM) in calcium-free buffer to empty internal stores, then 2 mM calcium added back. Measured: 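Fluo-4 signal in 384-well plates read on a FLIPR after thapsigargin (2 µM, calcium-free) store depletion and 2 mM calcium add-back; unnormalised mean endpoint per well; screen run twice, selected wells retested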. Scale: calcium signal: higher = more calcium entry after store depletion. Rule for the call: 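About 1500 genes called as lowering calcium entry, by varying amounts, judged against per-plate control wells with STIM1 as positive and Rho1 as negative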. Calls: active = called as lowering calcium entry; inactive = not called.
In all, the deposit lists about 20,000 reagents; this is an unselected part of those that have a named target and a result. Of all reagents, about 2,100 (10%) were called active. 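Raw plate signals without normalisation; calls rest on control-based scores that were not deposited; replicate 2 separates called from uncalled poorly.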 Reagents against one gene are numbered here. Reagent sequences are not shown. Not given: the amount of reagent, the time to read-out.

Rfx scored calcium signal, replicate 1 = 138; calcium signal, replicate 2 = 127; inactive.
Gorab (Golgin, RAB6 interacting) gave calcium signal, replicate 1 = 88.3; calcium signal, replicate 2 = 140; inactive.
Silencing of Upf2 came out at: calcium signal, replicate 1 = 195; calcium signal, replicate 2 = 74.4; inactive.
Silencing of CG14841 resulted in: calcium signal, replicate 1 = 139; calcium signal, replicate 2 = 159; inactive.
Obp99a (Odorant-binding protein 99a) showed calcium signal, replicate 1 = 74.3; calcium signal, replicate 2 = 115; active.
Cpr73D (Cuticular protein 73D) scored calcium signal, replicate 1 = 126; calcium signal, replicate 2 = 105; inactive.
Against Set1 (SET domain containing 1) #1, the values are calcium signal, replicate 1 = 58; calcium signal, replicate 2 = 183; active.
Silencing of Set1 (SET domain containing 1) #2 gave: calcium signal, replicate 1 = 71; calcium signal, replicate 2 = 204; active.
Against CG17121 the deposit lists calcium signal, replicate 1 = 202; calcium signal, replicate 2 = 123; inactive.
Depletion of Top1 (Topoisomerase 1) gave: calcium signal, replicate 1 = 50.1; calcium signal, replicate 2 = 93.7; active.
For Nil (Nilkantha) #1 the deposit lists calcium signal, replicate 1 = 184; calcium signal, replicate 2 = 112; inactive.
After knock-down of Nil (Nilkantha) #2, the screen gave calcium signal, replicate 1 = 97.1; calcium signal, replicate 2 = 153; inactive.
After knock-down of mAChR-B (muscarinic Acetylcholine Receptor, B-type) the results were calcium signal, replicate 1 = 93.2; calcium signal, replicate 2 = 224; inactive.
With knock-down of CG4586 the results were calcium signal, replicate 1 = 178; calcium signal, replicate 2 = 124; inactive.
CG1208 scored calcium signal, replicate 1 = 102; calcium signal, replicate 2 = 138; inactive.
mth (methuselah) scored calcium signal, replicate 1 = 154; calcium signal, replicate 2 = 90.5; inactive.
CG43336 gave calcium signal, replicate 1 = 93.9; calcium signal, replicate 2 = 129; inactive.
With knock-down of cnir (cornichon related), the screen gave calcium signal, replicate 1 = 87.4; calcium signal, replicate 2 = 98.1; inactive.
CG8613 scored calcium signal, replicate 1 = 191; calcium signal, replicate 2 = 98.7; inactive.
For CG2641 the deposit lists calcium signal, replicate 1 = 111; calcium signal, replicate 2 = 206; inactive.
With knock-down of CG14631 #1, the screen gave calcium signal, replicate 1 = 115; calcium signal, replicate 2 = 133; inactive.
After knock-down of CG14631 #2, the record shows calcium signal, replicate 1 = 116; calcium signal, replicate 2 = 183; inactive.
After knock-down of CG11786, the screen gave calcium signal, replicate 1 = 127; calcium signal, replicate 2 = 124; inactive.
For TotF (Turandot F), the values are calcium signal, replicate 1 = 79.9; calcium signal, replicate 2 = 110; inactive.
Depletion of Dhpr (Dihydropteridine reductase) resulted in: calcium signal, replicate 1 = 126; calcium signal, replicate 2 = 97.7; inactive.
After knock-down of Arl2 (ADP ribosylation factor-like 2), the record shows calcium signal, replicate 1 = 141; calcium signal, replicate 2 = 108; inactive.
With knock-down of dnr1 (defense repressor 1) #1, the record shows calcium signal, replicate 1 = 94.7; calcium signal, replicate 2 = 5710; inactive.
dnr1 (defense repressor 1) #2 gave calcium signal, replicate 1 = 74.5; calcium signal, replicate 2 = 130; inactive.
Against CG30291 the deposit lists calcium signal, replicate 1 = 97.6; calcium signal, replicate 2 = 9102; inactive.
With knock-down of Nup62 (Nucleoporin 62kD), the screen gave calcium signal, replicate 1 = 132; calcium signal, replicate 2 = 95.4; inactive.
After knock-down of Mst36Fa (Male-specific transcript 36Fa) the results were calcium signal, replicate 1 = 203; calcium signal, replicate 2 = 111; inactive.
obst-F (obstructor-F) showed calcium signal, replicate 1 = 78.2; calcium signal, replicate 2 = 132; inactive.
Knock-down of CG4957 gave: calcium signal, replicate 1 = 196; calcium signal, replicate 2 = 149; inactive.
Depletion of Alp12 (Alkaline phosphatase 12) resulted in: calcium signal, replicate 1 = 173; calcium signal, replicate 2 = 111; inactive.
With knock-down of srl (spargel), the record shows calcium signal, replicate 1 = 104; calcium signal, replicate 2 = 191; inactive.

Taken from above.
CG43336, calcium signal, replicate 1 → 93.9
Value of CG14631 #2 under “calcium signal, replicate 2”: 183
CG1208, calcium signal, replicate 2 = 138
